Our source for the binding values is publication PMC7010731.

These are yes or no findings as the source states them, for the method shown. Binding seen in cells or lysates may run through a third protein. Some results given as binding are weak or reduced against the parent protein; the word gives no strength.

The target in experiment [1] is T1, heme oxygenase-1 (HO-1) (human (endogenous in 293T)) (UniProt P09601).
T1 sequence: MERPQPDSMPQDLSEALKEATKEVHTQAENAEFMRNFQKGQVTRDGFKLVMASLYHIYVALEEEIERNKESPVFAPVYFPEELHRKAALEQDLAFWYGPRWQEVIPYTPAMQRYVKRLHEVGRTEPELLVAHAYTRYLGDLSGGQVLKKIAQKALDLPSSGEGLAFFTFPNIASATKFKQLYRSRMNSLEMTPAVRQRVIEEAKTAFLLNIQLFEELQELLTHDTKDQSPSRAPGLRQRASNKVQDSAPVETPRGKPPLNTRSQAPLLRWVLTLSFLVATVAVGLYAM
Kind of experiment: co-IP; lysates of 293T cells (Pierce IP lysis buffer); tosylactivated dynabeads coupled with 1 µg antibody to SIAH2 or to HO-1, control IgGs; IP buffer with 5 µM lactacystin; washed three times with PBS, 0.1% Triton X-100; immunoblotting. For orientation: Immunoblotting shows a protein as a band on a membrane.

Experiment [2] has as its target T2, seven in absentia homolog 2 (SIAH2) (human (endogenous in 293T)) (UniProt O43255).
T2 sequence: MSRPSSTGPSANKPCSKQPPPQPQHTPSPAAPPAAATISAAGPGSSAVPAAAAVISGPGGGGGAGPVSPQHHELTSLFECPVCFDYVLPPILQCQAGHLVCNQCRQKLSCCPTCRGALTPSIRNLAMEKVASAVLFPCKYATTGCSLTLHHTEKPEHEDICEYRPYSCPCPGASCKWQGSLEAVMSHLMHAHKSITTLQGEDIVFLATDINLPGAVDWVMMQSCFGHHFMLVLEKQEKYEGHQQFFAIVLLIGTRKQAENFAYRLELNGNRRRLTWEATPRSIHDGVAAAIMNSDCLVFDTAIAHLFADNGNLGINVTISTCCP
The description is as above.

B1: seven in absentia homolog 2 (SIAH2) (protein, UniProt O43255 1-324)
chain: MSRPSSTGPSANKPCSKQPPPQPQHTPSPAAPPAAATISAAGPGSSAVPAAAAVISGPGGGGGAGPVSPQHHELTSLFECPVCFDYVLPPILQCQAGHLVCNQCRQKLSCCPTCRGALTPSIRNLAMEKVASAVLFPCKYATTGCSLTLHHTEKPEHEDICEYRPYSCPCPGASCKWQGSLEAVMSHLMHAHKSITTLQGEDIVFLATDINLPGAVDWVMMQSCFGHHFMLVLEKQEKYEGHQQFFAIVLLIGTRKQAENFAYRLELNGNRRRLTWEATPRSIHDGVAAAIMNSDCLVFDTAIAHLFADNGNLGINVTISTCCP
For B1, the binding entry in experiment [1] is recorded as “binds”.

B2: heme oxygenase-1 (HO-1) (protein, UniProt P09601 1-288)
chain: MERPQPDSMPQDLSEALKEATKEVHTQAENAEFMRNFQKGQVTRDGFKLVMASLYHIYVALEEEIERNKESPVFAPVYFPEELHRKAALEQDLAFWYGPRWQEVIPYTPAMQRYVKRLHEVGRTEPELLVAHAYTRYLGDLSGGQVLKKIAQKALDLPSSGEGLAFFTFPNIASATKFKQLYRSRMNSLEMTPAVRQRVIEEAKTAFLLNIQLFEELQELLTHDTKDQSPSRAPGLRQRASNKVQDSAPVETPRGKPPLNTRSQAPLLRWVLTLSFLVATVAVGLYAM
As for B2, in experiment [2], the binding result is “binds”.
